Data on one molecule can be found in article PMC5292684, “High affinity anchoring of the decoration protein pb10 onto the bacteriophage T5 capsid” (Scientific Reports, 2017).

No constants are given. Whether binding was seen depends on the method and setting. Sequences can lack the tags named with a protein.

For the assay, the target named is decoration protein pb10 of bacteriophage T5, full-length, fused to a C-terminal histidine tag (bacteriophage T5) (UniProt Q6QGD6). Nature of the assay: SEC-MALS; SEC-MALLS of pb10 fused to a C-terminal histidine tag; single peak corresponding to 17 kDa; both purified. Background: In gel filtration, larger molecules generally elute earlier.

B1: decoration protein pb10 of bacteriophage T5, full-length, fused to a C-terminal histidine tag (natural protein, UniProt Q6QGD6 1-164, looked up)
chain: MIDYSGLRTIFGEKLPESHIFFATVAAHKYVPSYAFLRRELGLSSAHTNRKVWKKFVEAYGKAIPPAPPAPPLTLSKDLTASMSVEEGAALTLSVTATGGTGPYTYAWTKDGSPIPDASGATYTKPTAAAEDAGSYKVTVTDSKQVSKDSTTCAVTVNPTVPGG
notes: decoration protein pb10 of bacteriophage T5, 164 amino acids, GenBank AAU05286; Monomer by SEC-MALLS (17 kDa); 18.3 kDa with the His tag; also called pb10-His; His-tagged pb10; source: pET28b expression vector, purified (expression and purification detailed in SI); not shown: His-Tag, C-terminal, kept
With B1, the binding entry was “no binding”.
